Measurements: US20060173080A1, “Methods of modulating TNF using bupropion” (The Regents of the University of California, priority 2002, published 2006)
At least one compound was matched to its structure with a doubt left.

Test system: BALB/c mice
Experiment: LPS-induced shock model: survival and signs of endotoxemia after lethal LPS challenge
Assay type: in vivo
Description: Male BALB/c mice were injected with 11, 33 or 100 mg/kg of bupropion or with placebo i.p. in saline 1 h before challenge with 600 μg of E. coli LPS (Sigma, St. Louis, Mo.) by i.p. route. Mice were sacrificed 90 min for detection of cytokines in the serum by sandwich ELISA. Values represent the means±SEM of 5 mice per group. * P<0.05.
BALB/c mice were injected intraperitoneally (i.p.) with bupropion or placebo 1 h prior to i.p. injection of LPS (600 ug/mouse).
Male, 6 weeks old BALB/c mice were used in LPS-induced shock experiments. All mice were raised and maintained at the animal facilities at the Goncalo Moniz Research Center-FIOCRUZ, and provided with rodent diet and water ad libitum. Animal numbers in experimental groups were the minimum necessary to permit statistical analysis. All animals were sacrificed under anaesthesia.
In some experiments, groups of mice received i.p. injection of propranolol (1 mg/Kg), SCH23390 (25 μg/kg) and sulpiride (25 mg/Kg) 1 h prior to injection of bupropion. […] To determine serum TNF, IL-1 beta and IL-10 levels, mice were sacrificed 90 min after injection of LPS and bled by axilar vein puncture. Levels of IFN-gamma and nitric oxide were assayed using sera of mice sacrificed 4 h after LPS injection. […]

CN1CCc2cc(Cl)c(O)cc2[C@@H](c2ccccc2)C1 [SCH23390]
effect of antagonist on bupropion mediated survival / protection (antagonist i.p. 1 h prior to bupropion (propranolol 1 mg/Kg, SCH23390 25 μg/kg, sulpiride 25 mg/Kg), lethal LPS): partially block
protection from lethal LPS challenge by the antagonist alone (without bupropion, propranolol 1 mg/Kg, SCH23390 25 μg/kg, sulpiride 25 mg/Kg i.p.): Neither of these compounds alone was able to protect mice
